Laboratory results published in publication PMC9018712.
These are yes or no findings as the source states them, for the method shown. Binding seen in cells or lysates may run through a third protein. Some results given as binding are weak or reduced against the parent protein; the word gives no strength. For part of these data: Tags and fused reporters may be left off the sequences shown. Each block holds one binder with its values, some of them ahead of it.

Legend:
[1] = target: T1, enhanced green fluorescent protein (EGFP) fused to GRHL3 (UniProt Q5FWH3); assay: co-IP; visible immunoprecipitation (VIP) assay: extracts of co-transfected HEK293T cells, nanobody beads that bind EGFP, RFP fluorescence on the beads observed
T1 sequence: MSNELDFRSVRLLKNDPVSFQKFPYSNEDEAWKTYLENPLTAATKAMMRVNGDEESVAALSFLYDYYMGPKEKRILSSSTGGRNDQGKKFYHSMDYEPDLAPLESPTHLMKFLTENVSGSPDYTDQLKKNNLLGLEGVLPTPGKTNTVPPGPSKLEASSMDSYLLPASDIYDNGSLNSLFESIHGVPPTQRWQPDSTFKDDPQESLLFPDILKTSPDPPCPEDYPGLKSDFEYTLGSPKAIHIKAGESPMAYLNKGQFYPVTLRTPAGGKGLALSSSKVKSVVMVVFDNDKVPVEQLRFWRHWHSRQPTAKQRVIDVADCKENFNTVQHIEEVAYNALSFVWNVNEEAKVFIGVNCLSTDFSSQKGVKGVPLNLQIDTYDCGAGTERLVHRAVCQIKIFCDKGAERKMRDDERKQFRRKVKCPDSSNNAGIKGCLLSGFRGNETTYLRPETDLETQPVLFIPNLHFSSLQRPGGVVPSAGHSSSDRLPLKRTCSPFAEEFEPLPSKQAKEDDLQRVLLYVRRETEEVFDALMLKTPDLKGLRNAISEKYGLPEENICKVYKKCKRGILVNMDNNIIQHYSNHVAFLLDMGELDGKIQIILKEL

[2] = target: T2, GRHL3, endogenous in MBT2 cells and mouse eyelid periderm cells (mouse (endogenous in MBT2 cells and mouse eyelid)) (UniProt Q5FWH3); assay: proximity ligation; Duolink in situ PLA at endogenous protein levels in MBT2 cells and mouse eyelid tissue; mouse anti-GRHL3 and rabbit anti-USP39; distances <40 nm
T2 sequence: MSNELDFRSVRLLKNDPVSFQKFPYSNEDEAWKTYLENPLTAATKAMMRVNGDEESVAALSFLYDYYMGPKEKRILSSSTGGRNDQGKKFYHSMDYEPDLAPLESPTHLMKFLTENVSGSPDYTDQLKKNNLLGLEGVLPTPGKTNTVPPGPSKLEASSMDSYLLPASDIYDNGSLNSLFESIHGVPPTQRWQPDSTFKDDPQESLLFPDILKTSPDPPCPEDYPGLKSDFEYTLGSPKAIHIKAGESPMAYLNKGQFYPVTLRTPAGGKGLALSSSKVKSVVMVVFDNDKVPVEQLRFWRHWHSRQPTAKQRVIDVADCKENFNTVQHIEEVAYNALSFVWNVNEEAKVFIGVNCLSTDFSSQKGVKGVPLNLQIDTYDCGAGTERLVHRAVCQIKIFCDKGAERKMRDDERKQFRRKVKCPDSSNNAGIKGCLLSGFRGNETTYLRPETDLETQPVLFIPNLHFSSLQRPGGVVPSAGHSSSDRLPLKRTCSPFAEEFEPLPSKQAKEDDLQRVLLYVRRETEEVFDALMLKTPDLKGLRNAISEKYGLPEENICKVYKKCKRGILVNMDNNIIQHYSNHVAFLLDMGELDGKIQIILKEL

[3] = target: T3, Grainyhead-like 3 (GRHL3), endogenous in MCF7 cells (human (endogenous in MCF7)) (UniProt Q8TE85); assay: co-IP; MCF7 cell extracts, endogenous proteins, immunoprecipitation with an antibody against GRHL3
T3 sequence: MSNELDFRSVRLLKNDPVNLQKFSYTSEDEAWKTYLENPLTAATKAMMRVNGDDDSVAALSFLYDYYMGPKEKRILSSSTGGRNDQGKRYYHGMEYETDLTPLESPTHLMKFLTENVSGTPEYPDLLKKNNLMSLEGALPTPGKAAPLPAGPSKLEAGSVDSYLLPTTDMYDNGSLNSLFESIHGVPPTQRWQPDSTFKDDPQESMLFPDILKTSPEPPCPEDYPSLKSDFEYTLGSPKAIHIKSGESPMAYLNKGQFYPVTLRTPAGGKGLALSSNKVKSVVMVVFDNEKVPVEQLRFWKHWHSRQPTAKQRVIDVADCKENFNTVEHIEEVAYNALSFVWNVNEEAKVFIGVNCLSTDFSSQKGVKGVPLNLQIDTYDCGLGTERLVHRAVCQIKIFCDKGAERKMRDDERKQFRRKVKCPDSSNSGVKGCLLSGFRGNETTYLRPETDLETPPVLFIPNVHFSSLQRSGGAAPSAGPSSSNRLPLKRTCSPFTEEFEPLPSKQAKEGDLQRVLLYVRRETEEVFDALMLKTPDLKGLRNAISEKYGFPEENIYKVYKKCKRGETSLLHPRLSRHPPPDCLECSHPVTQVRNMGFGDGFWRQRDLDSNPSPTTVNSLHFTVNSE

binding [1]: binds
B1: RFP fused to USP39 (protein, UniProt Q3TIX9 1-564)
chain: MSSRSKRQSHGSTRGKRESESRGSSGRIKKERDREKEPEAASSRGSPVRVKREAEPAAREVPAPALPVVRVKREREADEDSEPEREVRAKNGRVDSEDRRSRHCPYLDTINRSVLDFDFEKLCSISLSHINAYACLVCGKYFQGRGLKSHAYIHSVQFSHHVFLNLHTLKFYCLPDNYEIIDSSLEDITYVLKPTFTKQQIANLDKQAKLSRAYDGTTYLPGIVGLNNIKANDYANAVLQALSNVPPLRNYFLEEDNYKNIKRPPGDIMFLLVQRFGELMRKLWNPRNFKAHVSPHEMLQAVVLCSKKTFQITKQGDGVDFLSWFLNALHSALGGTKKKKKTIVNDVFQGSMRIFTKKLPHPDLPAEEKEQLLHNDEYQETMVESTFMYLTLDLPTAPLYKDEKEQLIIPQVPLFNILAKFNGITEKEYKTYKENFLKRFQLTKLPPYLIFCIKRFTKNNFFVEKNPTIVNFPITNVDLREYLSEEVQAVHKNTTYDLIANIVHDGKPSEGSYRIHVLHHGTGKWYELQDLQVTDILPQMITLSEAYIQIWKRRDNDETNQQGA

binding [2]: binds
B2: USP39, endogenous in MBT2 cells and mouse eyelid periderm cells (protein, UniProt Q3TIX9 1-564)
chain: MSSRSKRQSHGSTRGKRESESRGSSGRIKKERDREKEPEAASSRGSPVRVKREAEPAAREVPAPALPVVRVKREREADEDSEPEREVRAKNGRVDSEDRRSRHCPYLDTINRSVLDFDFEKLCSISLSHINAYACLVCGKYFQGRGLKSHAYIHSVQFSHHVFLNLHTLKFYCLPDNYEIIDSSLEDITYVLKPTFTKQQIANLDKQAKLSRAYDGTTYLPGIVGLNNIKANDYANAVLQALSNVPPLRNYFLEEDNYKNIKRPPGDIMFLLVQRFGELMRKLWNPRNFKAHVSPHEMLQAVVLCSKKTFQITKQGDGVDFLSWFLNALHSALGGTKKKKKTIVNDVFQGSMRIFTKKLPHPDLPAEEKEQLLHNDEYQETMVESTFMYLTLDLPTAPLYKDEKEQLIIPQVPLFNILAKFNGITEKEYKTYKENFLKRFQLTKLPPYLIFCIKRFTKNNFFVEKNPTIVNFPITNVDLREYLSEEVQAVHKNTTYDLIANIVHDGKPSEGSYRIHVLHHGTGKWYELQDLQVTDILPQMITLSEAYIQIWKRRDNDETNQQGA

binding [3]: binds
B3: ubiquitin-specific protease 39 (USP39), endogenous in MCF7 cells (protein, UniProt Q53GS9 1-565)
chain: MSGRSKRESRGSTRGKRESESRGSSGRVKRERDREREPEAASSRGSPVRVKREFEPASAREAPASVVPFVRVKREREVDEDSEPEREVRAKNGRVDSEDRRSRHCPYLDTINRSVLDFDFEKLCSISLSHINAYACLVCGKYFQGRGLKSHAYIHSVQFSHHVFLNLHTLKFYCLPDNYEIIDSSLEDITYVLKPTFTKQQIANLDKQAKLSRAYDGTTYLPGIVGLNNIKANDYANAVLQALSNVPPLRNYFLEEDNYKNIKRPPGDIMFLLVQRFGELMRKLWNPRNFKAHVSPHEMLQAVVLCSKKTFQITKQGDGVDFLSWFLNALHSALGGTKKKKKTIVTDVFQGSMRIFTKKLPHPDLPAEEKEQLLHNDEYQETMVESTFMYLTLDLPTAPLYKDEKEQLIIPQVPLFNILAKFNGITEKEYKTYKENFLKRFQLTKLPPYLIFCIKRFTKNNFFVEKNPTIVNFPITNVDLREYLSEEVQAVHKNTTYDLIANIVHDGKPSEGSYRIHVLHHGTGKWYELQDLQVTDILPQMITLSEAYIQIWKRRDNDETNQQGA
